This data set can be described thus: general procedure: Fmoc solid-phase peptide synthesis in flow; Fmoc-PAL-PEG-resin; BOP/HOBT/diisopropylethylamine. The following applies: whole synthesis, scale 0.3 mmole.

HELM strings list residues between dots; [ac] is acetyl, [am] amide, other brackets name non-standard units.

“PEPTIDE1{[4-NO2Phe].[dC].Y.[dW].K.V.C.[N(CH3)Ala].[am]}$PEPTIDE1,PEPTIDE1,2:R3-7:R3$$$V2.0” registered an isolated mass of 31 mg.

The record behind these values is patent EP0791603A2 (American Cyanamid Company, priority 1996, dated 1997).
